## Library screening results

The values are deposited in ChEMBL (CHEMBL3988442, “University of Dundee, Small-Polar-MMV Screening Library” (2021)).

Each number is a percent effect as filed. The controls that fix the scale are not given in the record; negative values are as filed. Compounds were drawn at random from those tested, without regard to their results. Two or more numbers in one place are separate tests of the same structure; such repeats can differ widely.

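Viability assay of Plasmodium falciparum sporozoites; the read-out is not stated. The concentration is filed as 10 mM, unlikely as a test dose, so the dose is not known. Direction is inferred from retests: higher values go with lower viability. Strong results were mostly tested again. Of about 34,000 compounds tested this way, about 280 (0.84%) reached 50% or more in at least one test.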

compound | percent effect
CCn1c(CNC(=O)c2ccc(N(C)C)nc2)nc2ccccc21 | 14.13%
Cc1ccc(NC(=O)C2CSCN2C(=O)c2ccncc2)c(C)c1 (stereo unspecified) | 2.833%
NC(=O)C1CCN(C(=O)NCc2ccccc2Cn2cncn2)CC1 | -12.35%
COc1cccc(CN2CCCC(c3nn(C)c4nccnc34)C2)c1.Cl (stereo unspecified) | 1.701%
[H][C@@]12CCCCN(Cc3cccs3)[C@]1([H])CN(S(=O)(=O)c1ccccc1)C2 | -311.4%
CC(C)c1nnc2n1CCN(CC(=O)N1CCc3sccc3C1)C2 | 6.256%
COCCN1C(=O)CCC12CCCN(Cc1ccccc1F)C2.O=C(O)C(F)(F)F.O=C(O)C(F)(F)F (stereo unspecified) | -8.554%
Nc1cc(N2CCOCC(Cc3ccc4[nH]ccc4c3)C2)ncn1 (stereo unspecified) | 1.278%
COc1cccc2c1OCC(C(=O)N1Cc3ccccc3C1)C2 (stereo unspecified) | -2.193%
CCc1csc(C2CCCN(C(=O)COc3cc(C)on3)C2)n1 (stereo unspecified) | -8.084%
Cc1ccc(C(CNCc2cnn(C(C)C)c2)N2CCOCC2)s1 (stereo unspecified) | 27.83% & 23.57% & 32.92%
CCN(Cc1cccc(C(=O)Nc2ncc(C)s2)c1)[C@H]1COC[C@@H]1O | 11.06%
COc1ccc(COCC(O)CNC(=O)Cc2ccc(C)cc2)cc1 (stereo unspecified) | 3.567%
O=C1CC2(CCCCN2C(=O)c2ccccc2)CN1CC1CC1 (stereo unspecified) | -13.54%
CN(C)CC1CN(Cc2nc(-c3cccnc3)no2)CCO1 (stereo unspecified) | 17.32%
CN(C)C(=O)CCNC(=O)Nc1sc2ccccc2c1Cl | 44.04% & 58.57% & 53.39%
CC(=O)N1CCc2c(nc(N(C)C)nc2N(C)CCCC2CCCO2)C1 (stereo unspecified) | -152.6%
CC(C)Oc1cccc(CNC(=O)NC(C)(C(=O)O)c2ccco2)c1 (stereo unspecified) | 11.33%
O=C(CN1CC(n2cccn2)C1)NCCc1ccc(F)cc1 | 14.89%
COCC(=O)NCc1cccc(Br)c1 | 4.122%
Cc1ccccc1C1(C(=O)NCCN2CCCCC2C)CCOCC1 (stereo unspecified) | 15.34%
Cc1cc(-c2cnc(N3CCOCC3)nc2-c2cccnc2C)on1 | -0.1788%
Cc1cnc(N2CCc3onc(COc4cccnc4)c3C2)nc1 | 12.72%
Cc1ccc(C2CN(C(=O)c3ccn(C)c(=O)c3)CCO2)nc1 (stereo unspecified) | -27.17% & -13.72% & 30.74%
O=C(O)C(F)(F)F.[H][C@@]12OCCN(S(C)(=O)=O)[C@@]1([H])CC[C@@H]2Oc1ncccc1F | 1.522%
COCC1c2c(cnn2C)CCN1C(=O)c1cc(C)on1.O=C(O)C(F)(F)F (stereo unspecified) | 22.77%
Cc1nnc(Nc2cccc(C3CCN(CCO)CC3)n2)s1 | -9.804%
CCCn1nc2c(cc1=O)CN(Cc1ccccn1)CC2 | -4.379%
COc1ccccc1CNC(=O)C1=NN(c2ccc(C)cc2)C(=O)CN1 | 3.691%
Cn1cc(C(=O)Nc2ccc3c(c2)CN(C(=O)c2ccco2)CC3)nn1 | -4.581%
Cc1nn(-c2cc(Cl)cc(Cl)c2)c(C)c1CCC(=O)O | -3.916%
CSCC(=O)N1CCCCC1Cn1cc(C)cn1 (stereo unspecified) | -5.249%
COC(=O)c1ccoc1COC(=O)CCc1ccc(OC)c(OC)c1 | -9.808%
Cc1n[nH]c(C)c1S(=O)(=O)N(C)Cc1nn(C)c(Cl)c1Cl | -8.923%
c1ccc(Cc2cncc(C3CCCN3C3CCOCC3)n2)cc1 (stereo unspecified) | -1.144%
CNC(=O)C1(C)CN(c2nnc(C)c3ccccc23)CCO1 (stereo unspecified) | 6.725%
COc1cccc(C(=O)N2CCCCC2CNC(N)=O)c1 (stereo unspecified) | 10.02%
CC(C)Oc1ncccc1CNC(=O)N1CCSCC1 | 13.16%
COCCCN1CCCN(C(C)c2nc(C3CC3)no2)CC1 (stereo unspecified) | -8.438%
CC(C)C(C(=O)NCc1ccccc1-n1cccn1)N(C)C (stereo unspecified) | -10.97%
O=C(O)c1ccccc1CN1CCC(c2ccnc3ccnn23)CC1 | 5.765%
COCCOc1cccc(C(=O)N2CCCCC2c2nccs2)c1 (stereo unspecified) | 3.348%
CCc1nc(C2CCCN(C(=O)c3cccc(Cl)c3)C2)no1 (stereo unspecified) | 14.35% & -1.395% & 7.744%
CN(Cc1nnc(C2CC2)n1C)C1CCN(Cc2nccn2C)C1 (stereo unspecified) | -4.518%
CC(C)CN1C(=O)C2(CCCC2)NC12CCSCC2 | 6.75%
COCCNC(=O)C1(Cc2ccccc2-c2ccncc2)CCOCC1 | 5.204%
Cc1ncc(C(=O)N2CCCC(n3cccn3)C2)s1 (stereo unspecified) | 8.59%
O=C(NCCc1cccc(F)c1)C1(n2cnnn2)CCCCC1 | -1.181%
O=C(NCCc1cc(N2CCOCC2)nc(NC2CC2)n1)C1CC1 | 7.828%
CNc1cc(C2CN(Cc3scnc3C)CCO2)nc(C)n1 (stereo unspecified) | 6.451%
COCCN(Cc1ccc(F)cc1Cl)C(=O)c1ccncc1 | -8.959%
COCCN(CCC#N)S(=O)(=O)c1cc(F)cc(F)c1 | -0.5917%
Cc1cc(CN2CCCC2c2noc(C(C)C)n2)on1 (stereo unspecified) | 7.742%
Cc1ccc(S(=O)(=O)N2CCC3(CC(C(=O)NC4CCC4)=NO3)C2)cc1 (stereo unspecified) | -6.569%
Cc1csc(C2CCCCN2C(=O)c2cc(Cl)c[nH]2)n1 (stereo unspecified) | 0.3863%
Cc1sc2nc(C(F)(F)F)nc(N3CCC(NS(C)(=O)=O)CC3)c2c1C | 1.421%
O=C(Cc1ccc(F)cc1)NCC(O)(c1cccs1)C1CC1 (stereo unspecified) | 13.85% & 11.19%
COC(=O)c1ccoc1CN(C)Cc1ccccc1 | 0.4476%
COc1ccc(C(=O)Nc2cccc(SC)c2)c(OC)n1 | -11.35%
O=C(NCc1cccc(F)c1)NCC(O)c1cccc(F)c1 (stereo unspecified) | -5.284%
Cc1cc(C)cc(C(=O)N2CCCC3(CCCC(=O)N3C)C2)c1 (stereo unspecified) | -5.054%
CN(C)CCn1c2c(ccc1=O)CC(NC(=O)NC1CCCC1)CC2.O=C(O)C(F)(F)F (stereo unspecified) | 12.31%
O=C(O)C(F)(F)F.O=C(O)C(F)(F)F.[H][C@]12C[C@@H](CN3CCCC3)N(C)[C@@]1([H])CCN(C(=O)Cc1cccs1)C2 | 4.194%
CC(NC(=O)NCCCc1n[nH]c(N)c1C#N)c1cccs1 (stereo unspecified) | 16.69%
CCNC(=O)N(CCCO)C1CCCc2ccccc21 (stereo unspecified) | -18.87%
Cc1cccc(CNC(=O)CC2CCN(Cc3ccccn3)CC2)n1 | -6.596%
CCn1c(CN(C)C)nnc1C1CCN(Cc2ccc(C)s2)CC1 | -16.4%
CCC1CCCCN1C(=O)Cn1nc(-c2ccc(C)o2)cc(N)c1=O (stereo unspecified) | 11.34%
CCOc1ccccc1C(C(=O)O)N(C)CC1CCOCC1 (stereo unspecified) | -6.064%
CCCN(C)CCC(=O)N1CCCC1Cn1cccn1 (stereo unspecified) | 4.436%
Cc1ccc(CN2CCOCC2c2[nH]ncc2C)cn1 (stereo unspecified) | -3.547%
O=C(O)C(F)(F)F.[H][C@@]12CN(Cc3ccc(CC)o3)C[C@]1([H])OCCN2c1ccnc(N(C)C)n1 | -10.38%
Cc1cccc(NC(=O)[C@@H]2CCCN2CC(=O)N2CCCCCC2)n1 | -7.94%
CN(C)c1cc(CNC(=O)c2cc(F)ccc2F)ccn1 | 8.86%
Cc1cnn(CC(C)NCc2ccc(OCc3cccnc3)cc2)c1 (stereo unspecified) | 0.3365% & 7.484% & -11.94%
Cn1ccnc1CN1CCC(Cn2cc(-c3ccccc3)nn2)CC1 | 11.75%
CN1CC[C@H](N(C)Cc2ccccc2)C[C@H](O)C1 | 6.029%
CC1(C)OC(=O)N(CCOc2ccc(F)cc2)C1=O | 3.939%
Fc1ccc(CN2CCCC(c3nccnc3-n3ccnc3)C2)cc1 (stereo unspecified) | 7.329%
Cc1n[nH]c(=O)c2c(NC(=O)CN3CCOCC3)oc(C)c12 | 4.153% & -7.68% & -5.419%
CCc1cc(NC(=O)N2CCC(Oc3cccnc3)C2)n(C)n1 (stereo unspecified) | -1.143%
N#Cc1ccc(SCCOCCO)c(Cl)c1 | -26.29%
O=c1oc(-c2ccc(F)cc2)nn1CN1CCN(C2CCCC2)CC1 | 14.23%
Cc1nc2cc(O)nn2c(C)c1CCC(=O)NCCCC(C)C | 13.92%
Cc1ccc(NC(=O)NC(C)c2nc[nH]n2)cc1Cl (stereo unspecified) | 2.598% & 4.656%
O=C(O)C(F)(F)F.[H][C@@]12CN(Cc3csnn3)C[C@]1([H])OCCN2c1ncccn1 | 5.556%
CSC1(CNC(=O)CCc2ccc(Cl)s2)CCOCC1 | -5.085%
CS(=O)(=O)N1CCC2(CC1)CC(NCC1CC1)c1ccccc12.O=C(O)C(F)(F)F (stereo unspecified) | 7.257%

Repeated from the top, 7 entries:

CCn1c(CNC(=O)c2ccc(N(C)C)nc2)nc2ccccc21 gave 14.13%.
Cc1ccc(NC(=O)C2CSCN2C(=O)c2ccncc2)c(C)c1 (stereo unspecified) gave 2.833%.
NC(=O)C1CCN(C(=O)NCc2ccccc2Cn2cncn2)CC1 gave -12.35%.
COc1cccc(CN2CCCC(c3nn(C)c4nccnc34)C2)c1.Cl (stereo unspecified) gave 1.701%.
[H][C@@]12CCCCN(Cc3cccs3)[C@]1([H])CN(S(=O)(=O)c1ccccc1)C2 gave -311.4%.
CC(C)c1nnc2n1CCN(CC(=O)N1CCc3sccc3C1)C2 gave 6.256%.
COCCN1C(=O)CCC12CCCN(Cc1ccccc1F)C2.O=C(O)C(F)(F)F.O=C(O)C(F)(F)F (stereo unspecified) gave -8.554%.